These results are taken from article PMC4772494.

In assay [1] the target is T1, Nod-like receptor protein 1 (NLRP1) (rat (endogenous in spinal cord tissue and primary spinal cord neurons)) (UniProt D9I2F9).
T1 sequence: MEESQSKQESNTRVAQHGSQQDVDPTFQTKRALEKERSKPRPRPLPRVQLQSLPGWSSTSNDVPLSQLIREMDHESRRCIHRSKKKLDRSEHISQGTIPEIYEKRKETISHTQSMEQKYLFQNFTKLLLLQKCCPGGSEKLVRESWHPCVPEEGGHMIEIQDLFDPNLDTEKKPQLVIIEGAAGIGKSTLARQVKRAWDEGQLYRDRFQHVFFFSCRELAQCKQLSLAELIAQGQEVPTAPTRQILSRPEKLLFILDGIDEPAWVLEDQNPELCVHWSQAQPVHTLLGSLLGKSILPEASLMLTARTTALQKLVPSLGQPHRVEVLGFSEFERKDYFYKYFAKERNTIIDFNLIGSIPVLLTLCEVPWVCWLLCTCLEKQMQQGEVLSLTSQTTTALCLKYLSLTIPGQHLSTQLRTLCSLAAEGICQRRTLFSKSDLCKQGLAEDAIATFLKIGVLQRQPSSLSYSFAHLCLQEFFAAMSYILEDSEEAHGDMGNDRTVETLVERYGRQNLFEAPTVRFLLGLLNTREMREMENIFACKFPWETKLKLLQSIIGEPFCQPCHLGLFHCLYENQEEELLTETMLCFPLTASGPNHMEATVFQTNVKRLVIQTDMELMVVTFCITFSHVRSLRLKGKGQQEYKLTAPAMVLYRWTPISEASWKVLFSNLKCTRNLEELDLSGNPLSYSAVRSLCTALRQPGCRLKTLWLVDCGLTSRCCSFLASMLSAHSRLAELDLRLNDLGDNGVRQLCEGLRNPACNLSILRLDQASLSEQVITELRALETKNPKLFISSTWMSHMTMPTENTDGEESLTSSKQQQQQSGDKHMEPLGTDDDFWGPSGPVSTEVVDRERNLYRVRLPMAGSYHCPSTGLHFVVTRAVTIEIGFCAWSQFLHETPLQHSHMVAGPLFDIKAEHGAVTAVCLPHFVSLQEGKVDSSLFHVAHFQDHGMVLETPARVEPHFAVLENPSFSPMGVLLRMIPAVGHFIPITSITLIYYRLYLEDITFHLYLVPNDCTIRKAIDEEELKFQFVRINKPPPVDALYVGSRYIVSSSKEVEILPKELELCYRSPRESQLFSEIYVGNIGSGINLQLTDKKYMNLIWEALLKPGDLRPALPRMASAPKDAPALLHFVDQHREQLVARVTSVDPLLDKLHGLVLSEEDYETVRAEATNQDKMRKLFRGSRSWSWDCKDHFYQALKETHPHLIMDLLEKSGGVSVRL
The assay is described as follows: co-IP; primary rat spinal cord neuron lysates (untreated, or 6 h 10 μM H2O2) in 50 mM Tris-HCl pH 7.4, 150 mM NaCl, 0.5 % NP-40; anti-NLRP1 antibody coupled to magnetic Dynabeads, overnight at 4 °C, low-pH elution, immunoblot. A general note: Immunoblotting shows a protein as a band on a membrane.

Assay [2] addresses T1, Nod-like receptor protein 1 (NLRP1) (rat (endogenous in spinal cord tissue and primary spinal cord neurons)). Nature of the assay: co-IP; rat spinal cord lysates (sham, or 24 h after SCI) in 50 mM Tris-HCl pH 7.4, 150 mM NaCl, 0.5 % NP-40; anti-ASC or anti-NLRP1 antibody coupled to magnetic Dynabeads, overnight at 4 °C, low-pH elution, immunoblot; pre-immune serum as negative control.

No constants are given. Whether binding was seen depends on the method and setting. In cells and extracts the contact can be indirect. Some entries that bind do so weakly or less than the wild type.

B1: pro-caspase-1 (enzyme, UniProt P43527 1-402)
chain: MADKVLRAKRKQFINSVSVGTINGLLDELLEKRVLNQEEMDTIKLANITVMEKARDLCDHVTKKGPRASQMFITYICNEDCYLAEILELQSGPSAETVFVTEDSKGGHPFSSETKEKLNKEGGAFPGPSGSLKFCPLEIAQKLWKENHSEIYPIMKTPTRTRLALIICNTDFQHLSRRVGADVDLREMKLLLQDLGYTVKVKENLTALEMTKELKEFAACPEHKTSDSTFLVFMSHGLQEGICGITYSNEVADILKVDTIFQMMNTLKCPSLKDKPKVIIIQACRGEKQGVVLLKDSVGNSEEGFLTDAIFEDDGIKKAHIEKDFIAFCSSTPDNVSWRHPVRGSLFIESLIKHMKEYAWSCDLEDIFRKVRFSFEQPDSRLQMPTTERVTLTKRFYLFPGH
For B1, the binding entry in assay [1] and in assay [2] was “binds” throughout.

B2: caspase-1 p20 (domain or fragment, UniProt P43527 119-296)
chain: NKEGGAFPGPSGSLKFCPLEIAQKLWKENHSEIYPIMKTPTRTRLALIICNTDFQHLSRRVGADVDLREMKLLLQDLGYTVKVKENLTALEMTKELKEFAACPEHKTSDSTFLVFMSHGLQEGICGITYSNEVADILKVDTIFQMMNTLKCPSLKDKPKVIIIQACRGEKQGVVLLKD
With B2, the binding entry in assay [1] was “binds”.
